Test results as given in paper PMC12040169 (PLOS Biology, 2025).
The list shows a part of the results.

System: T1, CTL2-GFP (C. trachomatis L2/434/Bu, GFP-expressing)
T1 construct: L2/434/Bu, GFP-expressing
Set-up: species or system HeLa; Intracellular C. trachomatis growth in HeLa cells, bulk GFP fluorescence relative to DMSO
Settings: bulk GFP, single well; 28.5 h, 10 µM; inhibitor

Point of comparison: `C=C(C)CN1CCN(Cc2c[nH]nc2C(C)(C)C)CC1` [CBK282827], “% of control remaining” value 129.293%. Against it:
- CSC1CCC(N(C)C(=O)NCCc2cn3cccc(C)c3n2)C1 (centres unmarked) [CBK305324] — lower, 113.989%
- O=C(NC1CCNC1)c1ccc(F)cc1 (centres unmarked) [CBK281632] — higher, 134.735%
- Cc1ccc2c(c1)cc(C(=O)N1CCOC(C(=O)N3CCCCCC3)C1)n2C (centres unmarked) [CBK286032] — lower, 124.622%
- CCN(CC)CCn1c(=N)n(CC(O)c2ccc(C)cc2)c2ccccc21 (centres unmarked) [CBK262914C] — lower, 100%
- COc1cc(OC)c(NC(=O)C(C)Oc2ccc(Cl)c(C)c2)cc1Cl (centres unmarked) [CBK269697] — higher, 133.473%
- CCNC(=S)N1CCN(CCNC=C2C(=O)CC(C)(C)CC2=O)CC1 [CBK263661] — lower, 128.721%
- CCOC(=O)Nc1ccc2c(c1)N(C(=O)CN1CCN(C)CC1)c1ccccc1CC2 [CBK278194C] — lower, 110.07%
- CCn1cc(C(=O)Nc2nccs2)c(=O)c2ccc(C)nc21 [CBK307628] — lower, 124.871%
- Cc1ccc(OCc2nnc(SCC(=O)c3cccs3)n2-c2ccccc2)cc1C [CBK265033] — lower, 103.826%
- Cn1ccnc1C(NC(=O)[C@@H]1C[C@@H]2C=C[C@H]1C2)c1ccc(F)cc1 (some centres unmarked) [CBK281483] — lower, 127.325%
- O=C(c1ccco1)N(CCCn1ccnc1)c1nc2c(F)cccc2s1 [CBK287758] — lower, 117.624%
- CN1CCN(c2cccc(-c3ccc(CNC(=O)OC(C)(C)C)cc3)n2)CC1 [CBK037641] — higher, 142.809%
- O=C(Nc1ccc(Cc2ccc(O)c(NC(=O)c3ccccc3F)c2)cc1O)c1ccccc1F [CBK265766] — lower, 100%
- O=C(O)c1c(Br)c(Br)c(Br)c(Br)c1C(=O)NCCc1ccccc1 [CBK261702] — lower, 114.15%
- CC(=O)N1C[C@H](c2cccc(C)c2)[C@H]2CN(C3CCCC3)CC[C@H]21 [CBK283369] — higher, 165.169%
- Cc1cc(NS(=O)(=O)c2ccc(Nc3nc(-c4ccccn4)cs3)cc2)no1 [CBK263302B] — lower, 22.6441%
- CCOc1ccccc1/C=N/Nc1ccccc1[N+](=O)[O-] [CBK261673] — lower, 100%
- CC(C)n1ncc2cc(C(=O)Nc3ncccc3O)cnc21 [CBK305751] — lower, 115.885%
- CCCCc1ccc(-c2nc3ncccc3cc2O)cc1 [CBK073702] — lower, 78.0198%
- CCN(CC(=O)Nc1ccc(OC)c(Cl)c1)S(=O)(=O)c1ccc2ccccc2c1 [CBK267910] — lower, 124.677%
- CC(=O)c1sc2nc(-c3ccccc3)nc(C)c2c1N [CBK115368] — lower, 108.776%
- Cc1[nH]c2ccccc2c1/C=N/NC(=O)C1COc2ccccc2O1 (centres unmarked) [CBK261482] — lower, 100%
- O=C(O)c1nccnc1-c1ccc(Cn2ccc3ccccc32)cc1 [CBK050811] — higher, 194.223%
- CCCC/C=C/c1cncc(NC2CCC(N)CC2)n1 (centres unmarked) [CBK037827] — lower, 120.505%
- Cc1ccc(OCC(=O)NCC2CCN(c3cnn(C)c(=O)c3)C2)cc1 (centres unmarked) [CBK306693] — lower, 105.671%
- CC(=O)Nc1cccc(-c2nccnc2N2CCCCC2CCO)c1 (centres unmarked) [CBK036591] — higher, 139.516%
- O=C(NNCc1ccccc1)c1cc(Br)cnc1N1CCN(C(=O)c2ccco2)CC1 [CBK076460] — lower, 103.019%
- COC(=O)CCCC(=O)n1ccn(CCc2cccs2)c1=O [CBK106612] — lower, 100%
